The list shows a part of the results. Shown are side measurements of this screen, not its main read-out; they come without a call. Compounds called inactive in the main read-out are mostly missing here. The note in brackets gives the kind of curve behind each potency; many fits are weak.

For orientation: AC50 means the midpoint of the concentration-response curve, whichever way the signal moves.

One test in a line: Validation of Assay for Modulators of Lamin A Splicing (AID 1459). To be noted: Lamin A splicing dual RFP/GFP fluorescence reporter, ratio; measured here: GFP channel. An excerpt:
Hutchinson-Gilford Progeria Syndrome (HGPS) is a pediatric premature aging disease caused by a spontaneous mutation in the lamin A/C (LMNA) gene. The mutation activates a cryptic splice site in the LMNA pre-mRNA which results in production of a pre-lamin A protein that cannot be processed properly. The mutant protein accumulates in the nucleus and negatively affects numerous cellular functions. Correction of the splicing defect in HGPS patient cells using a targeted oligonucleotide (exo11) leads to reversal of the cellular disease phenotypes. To identify small molecule modulators of aberrant LMNA splicing, a homogenous assay was constructed in HeLa cells that used a GFP containing minigene to report on correction of aberrant splicing in lamin A and a RFP (DsRed2) to report on cell viability, uniformity and nonspecific effects on the assay signal. This assay was adapted to laser-scanning microplate cytometry (Acumen, TTP Labtech) where miniaturization of the assay to a 1,536-well plate format was possible.
Bowen, W. P.; Wylie, P. G. Application of Laser-Scanning Fluorescence Microplate Cytometry in High Content Screening. Assay Drug Dev Technol 2006;4:209-221.
Scaffidi P, Misteli T. Reversal of the cellular phenotype in the premature aging disease Hutchinson-Gilford progeria syndrome. Nat. Med. 2005;11:440-445.
NCGC Assay Protocol Summary:
Reagents/Controls: Stable clones expressing DsRed2 and lamin A-EGFP were generated by Cell and Molecular Technologies in S3 HeLa cells.
HeLa cells were prepared for the assay when they were 70-90% confluent. The cells were counted and resuspended in Opti-MEM I (no phenol red; Gibco), 2% FBS, 1% penicillin/ streptomycin (Gibco) at concentration of 120 cells/uL concentration. The suspension was passed through a Falcon basket filter with pore size 40um (Beckton Dickson).
Control titrations: column […] 1536-well plate contained a sixteen point titration (1:2 dilutions) in duplicate of ancitabine (Sigma: A8598) beginning at 40 uM final concentration. Column 2 contained a sixteen point titration (1:2 dilutions) of cycloheximide beginning at 1.4 mM final concentration. Column 3 contained ancitabine at 40 uM and column 4 contained was the vehicle control (0.5% DMSO final concentration).
5 uL of HeLa cells were plated in Aurora LoBase black clear bottom (cyclic-olefin polymer) 1536-well plates at a final density of 600 cells/well. Controls and library compounds were added with a 1536-well pin array using the Kalypsys pin-tool. The plates were then incubated for 48 hrs in a cell-culture incubator (37 °C; 5% CO2, 98% humidity). Following incubation the plates were read on the Acumen Explorer using the 488 nm laser. Data was collected on objects between 10 and 100 um in size. Cell objects were defined by a 15 um width x 10 um depth filter. The ratio of the total object intensity in PMT1 (500-530 nm emission; GFP) over PMT3 (575-640 nm emission; RFP) was calculated for analysis.
Keywords: NIH Roadmap, MLSCN, MLI, MLSMR, qHTS, NCGC, lamin A, Progeria, RNA splicing.
Take `O=C(O)c1ccccc1Nc1cccc(OCc2ccc3ccccc3n2)c1`: the concentration at half-maximal activity (AC50) was 35.5 µM [rising, single point].
Still for that read-out and setting: to `CC1=NS(=O)(=O)c2cc(Cl)ccc2N1` belongs 3.55 µM [falling, single point]; to `CCOC(=O)C1=C(C)NC(C)=C(C(=O)OC)C1c1cccc(Cl)c1Cl` (stereo unspecified), 35.5 µM [falling, single point]; to `Cc1ccc(S(=O)(=O)N[C@@H](Cc2ccccc2)C(=O)CCl)cc1`, 3.16 µM [falling, partial curve].
Still for that read-out and setting: to `O=c1[nH]c2cc(Cl)c(Cl)cc2[nH]c1=O` belongs 3.55 µM [rising, full curve, poor fit].
Same read-out and setting: the same measure for `O=c1cc(-c2ccccc2)[nH]c2nc(Cl)ccc12`: 5.62 µM [falling, full curve, poor fit]; for `Oc1ccc(O)cc1`: 35.5 µM [falling, single point]; for `CN1CCN2c3ccccc3Cc3ccccc3C2C1` (stereo unspecified): 14.1 µM [rising, single point].
On to `CC(C)C[C@H](N)CSSC[C@@H](N)CC(C)C`, for which the AC50 was 31.6 µM [falling, single point].
For `CCN1/C(=C/C(C)=O)Sc2ccc(OC)cc21`, the AC50 was 14.1 µM [rising, partial curve, poor fit].
In the case of `Cc1ccc(O)c(N=Nc2ccccc2)n1`, the AC50 was 22.4 µM [falling, single point].
As to `COC(=O)C1=C(C)NC(C)=C(C(=O)OCCN(C)Cc2ccccc2)C1c1cccc([N+](=O)[O-])c1` (stereo unspecified), the AC50 was 35.5 µM [falling, single point].
As to `Clc1ccccc1C(c1ccccc1)(c1ccccc1)n1ccnc1`, the half-maximal activity concentration (AC50) was 14.1 µM [rising, partial curve].
Regarding `CN(C)CCCN1c2ccccc2Sc2ccc(C(F)(F)F)cc21`, the AC50 was 14.1 µM [falling, partial curve, poor fit].
Same read-out and setting: the same measure for `Nc1nc2ccc(OC(F)(F)F)cc2s1`: 12.6 µM [rising, single point]; for `O=C(/C=C/c1ccc(O)c(O)c1)OCCc1ccccc1`: 3.55 µM [rising, full curve, poor fit].
The same measure, in the same setting: the same measure for `CC(C)(C)c1ccc(S(=O)(=O)/C=C/C#N)cc1`: 7.94 µM [falling, partial curve]; for `O=[N+]([O-])c1ccc(-c2nc(-c3ccc(F)cc3)c(-c3ccncc3)[nH]2)cc1`: 0.2 µM [falling, full curve, poor fit]; for `CSc1ccc2c(c1)N(CCC1CCCCN1C)c1ccccc1S2` (stereo unspecified): 28.2 µM [falling, single point].
`C[C@@H]1C(=O)NC2=Nc3cccc(Cl)c3CN21`: the AC50 was 0.398 µM [rising, full curve].
As to `CC(=O)SC1CC2=CC(=O)CC[C@]2(C)C2CC[C@@]3(C)[C@@H](CC[C@@]34CCC(=O)O4)C12` (stereo partly specified), the half-maximal activity concentration (AC50) was 11.2 µM [falling, partial curve].

The test is the same for the next values; noted with them: Lamin A splicing dual RFP/GFP fluorescence reporter, ratio; measured here: RFP channel.
Turning to `CC1=NS(=O)(=O)c2cc(Cl)ccc2N1`, the AC50 is 3.55 µM [falling, single point].
On to `CCOC(=O)C1=C(C)NC(C)=C(C(=O)OC)C1c1cccc(Cl)c1Cl` (stereo unspecified), for which the AC50 is 35.5 µM [falling, single point].
On the same count and under the same terms, to `Cc1ccc(S(=O)(=O)N[C@@H](Cc2ccccc2)C(=O)CCl)cc1` belongs 14.1 µM [falling, partial curve, poor fit]; to `O=c1[nH]c2cc(Cl)c(Cl)cc2[nH]c1=O`, 3.55 µM [rising, full curve, poor fit].
Still for that read-out and setting: the same measure for `O=c1cc(-c2ccccc2)[nH]c2nc(Cl)ccc12`: 5.01 µM [falling, full curve, poor fit].
`Oc1ccc(O)cc1`: the AC50 was 11.2 µM [falling, partial curve].
`CN1CCN2c3ccccc3Cc3ccccc3C2C1` (stereo unspecified): the AC50 was 14.1 µM [falling, partial curve, poor fit].
Same read-out and setting: the same measure for `CC(C)C[C@H](N)CSSC[C@@H](N)CC(C)C`: 17.8 µM [falling, single point]; for `CCN1/C(=C/C(C)=O)Sc2ccc(OC)cc21`: 12.6 µM [rising, single point].
With `Cc1ccc(O)c(N=Nc2ccccc2)n1`, the AC50 is 10 µM [falling, partial curve].
On to `COC(=O)C1=C(C)NC(C)=C(C(=O)OCCN(C)Cc2ccccc2)C1c1cccc([N+](=O)[O-])c1` (stereo unspecified), for which the concentration at half-maximal activity (AC50) was 20 µM [falling, partial curve].
Same read-out and setting: the same measure for `Clc1ccccc1C(c1ccccc1)(c1ccccc1)n1ccnc1`: 14.1 µM [rising, partial curve]; for `CN(C)CCCN1c2ccccc2Sc2ccc(C(F)(F)F)cc21`: 15.8 µM [falling, partial curve]; for `Nc1nc2ccc(OC(F)(F)F)cc2s1`: 12.6 µM [rising, single point].
Still for that read-out and setting: the same measure for `CC(C)(C)c1ccc(S(=O)(=O)/C=C/C#N)cc1`: 11.2 µM [falling, partial curve]; for `CN(C)c1nc2c(Br)c(Br)c(Br)c(Br)c2[nH]1`: 0.891 µM [falling, full curve, poor fit].
On the same count and under the same terms, the same measure for `O=[N+]([O-])c1ccc(-c2nc(-c3ccc(F)cc3)c(-c3ccncc3)[nH]2)cc1`: 12.6 µM [falling, partial curve, poor fit].
Turning to `CSc1ccc2c(c1)N(CCC1CCCCN1C)c1ccccc1S2` (stereo unspecified), the AC50 was 22.4 µM [falling, single point].
Still for that read-out and setting: to `C[C@@H]1C(=O)NC2=Nc3cccc(Cl)c3CN21` belongs 0.398 µM [rising, full curve, poor fit].
Turning to `CC(=O)SC1CC2=CC(=O)CC[C@]2(C)C2CC[C@@]3(C)[C@@H](CC[C@@]34CCC(=O)O4)C12` (stereo partly specified), the concentration at half-maximal activity (AC50) is 11.2 µM [falling, partial curve].

These data come from PubChem BioAssay (NCATS).
